Experimental data taken from patent US20240307370A1, “SIGMA RECEPTOR LIGANDS FOR TREATING SARS-COV-2 INFECTION” (University of Florida Research Foundation, Incorporated, priority 2021, published 2024).

Experiments:
SARS-CoV-2 [1] = assay: Plaque reduction assay in Vero E6 monolayers; type: cell-based
[2] = rats, mean, cited from earlier work
SARS-CoV-2 [3] = assay: in vitro

Question: Which results are given for `CC(CCCn1c(=O)sc2cc(F)ccc21)N1CCN(C2CCCCC2)CC1` (stereo not shown) [AZ66]?
Answer: selectivity index (CC50/EC50) by plaque assay (SARS-CoV-2 [1]): > 19.72; AUC ([2]; intravenous 5 mg/kg dose): 63.2 µg·h/mL; area under the curve (AUC) ([2]; oral dosing of 20 mg/kg): 158.22 µg·h/mL; selectivity ratio at 72 h (SARS-CoV-2 [3]): > 2.82
